Experiment [1] has as its target D1R fused to the N-terminal portion of EYFP (pBiFC-DRD1-YN155) (human) (UniProt P21728). As to the kind of experiment: split reporter.
The target of experiment [2] is dopamine D5 receptor (human (endogenous in hRPTCs)) (UniProt P21918). As to the kind of experiment: co-IP.
Experiment [3] has as its target dopamine D1 receptor (human (endogenous in hRPTCs)) (UniProt P21728). As to the kind of experiment: co-IP.

Protein sequences, listed by entry. Tags and fused reporters are not part of them. Lines headed by an entry give the natural chain unless they say otherwise; changes in a name come on top.
UniProt P21728: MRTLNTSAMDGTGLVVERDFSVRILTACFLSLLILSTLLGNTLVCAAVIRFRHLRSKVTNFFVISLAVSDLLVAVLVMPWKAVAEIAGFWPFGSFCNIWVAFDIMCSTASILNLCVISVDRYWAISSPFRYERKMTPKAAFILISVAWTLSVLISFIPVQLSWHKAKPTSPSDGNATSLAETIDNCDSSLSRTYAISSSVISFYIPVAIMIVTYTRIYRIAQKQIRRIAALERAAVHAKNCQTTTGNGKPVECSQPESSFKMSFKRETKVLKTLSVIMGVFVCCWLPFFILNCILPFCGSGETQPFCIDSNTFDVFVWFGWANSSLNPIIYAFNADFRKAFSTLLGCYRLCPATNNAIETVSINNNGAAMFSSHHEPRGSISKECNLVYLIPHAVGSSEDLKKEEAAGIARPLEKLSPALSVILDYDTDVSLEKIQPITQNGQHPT
UniProt P21918: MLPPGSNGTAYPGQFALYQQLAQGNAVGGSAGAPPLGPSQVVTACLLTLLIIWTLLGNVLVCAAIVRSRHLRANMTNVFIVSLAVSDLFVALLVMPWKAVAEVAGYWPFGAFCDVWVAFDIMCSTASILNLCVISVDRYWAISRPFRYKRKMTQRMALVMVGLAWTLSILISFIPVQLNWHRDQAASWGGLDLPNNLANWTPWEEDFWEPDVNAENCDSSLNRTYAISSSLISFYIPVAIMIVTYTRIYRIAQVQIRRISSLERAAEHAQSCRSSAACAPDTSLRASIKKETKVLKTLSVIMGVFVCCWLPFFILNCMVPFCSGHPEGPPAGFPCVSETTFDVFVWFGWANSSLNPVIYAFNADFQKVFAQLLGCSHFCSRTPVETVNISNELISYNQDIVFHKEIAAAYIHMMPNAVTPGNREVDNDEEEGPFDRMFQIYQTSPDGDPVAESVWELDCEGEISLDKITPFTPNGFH

No constants are given. Whether binding was seen depends on the method and setting. Binding seen in cells or lysates may run through a third protein. Some results given as binding are weak or reduced against the parent protein; the word gives no strength.

Turning to “D5R fused to the C-terminal portion of EYFP (pBiFC-DRD5-YC155) (from UniProt P21918 1-477) (receptor)”, in experiment [1], the binding entry is reported as “binds”.

For “dopamine D1 receptor (from UniProt P21728 1-446)”, the binding result in experiment [2] was “binds”. As for “dopamine D5 receptor (from UniProt P21918 1-477)”, the binding result in experiment [3] was “binds”.

For the origin of these results see publication doi:10.1101/736611.
